According to PMC10289004:
No constants are given. Whether binding was seen depends on the method and setting. In cells and extracts the contact can be indirect. Some results given as binding are weak or reduced against the parent protein; the word gives no strength.

Molecular target: T1, receptor-interacting protein kinase 1 (RIPK1), endogenous in mouse erythrocytes (mouse (endogenous in mouse erythrocytes)), Q60855
T1 chain: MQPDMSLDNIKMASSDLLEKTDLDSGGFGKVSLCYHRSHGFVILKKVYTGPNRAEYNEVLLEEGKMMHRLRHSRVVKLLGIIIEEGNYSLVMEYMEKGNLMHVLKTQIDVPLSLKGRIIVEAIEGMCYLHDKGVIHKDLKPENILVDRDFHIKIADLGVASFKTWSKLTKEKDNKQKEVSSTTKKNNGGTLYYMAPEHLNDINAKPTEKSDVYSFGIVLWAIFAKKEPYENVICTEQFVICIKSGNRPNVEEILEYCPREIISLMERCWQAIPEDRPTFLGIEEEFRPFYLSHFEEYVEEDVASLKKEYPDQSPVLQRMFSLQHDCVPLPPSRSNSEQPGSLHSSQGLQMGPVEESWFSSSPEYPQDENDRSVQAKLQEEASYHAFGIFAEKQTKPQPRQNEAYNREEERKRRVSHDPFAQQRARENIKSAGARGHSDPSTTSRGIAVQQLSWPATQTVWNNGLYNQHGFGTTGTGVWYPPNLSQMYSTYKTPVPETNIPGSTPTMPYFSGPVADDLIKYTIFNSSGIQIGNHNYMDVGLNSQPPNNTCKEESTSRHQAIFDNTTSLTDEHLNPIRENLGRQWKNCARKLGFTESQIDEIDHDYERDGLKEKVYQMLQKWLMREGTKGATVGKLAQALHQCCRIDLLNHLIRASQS
Test: co-IP; endogenous proteins in lysates of erythrocytes from mice 24 h after LPS injection, with TMG or PBS; RIPK1 immunoprecipitated, co-immunoprecipitated RIPK3 blotted
Details: remark: other sources report otherwise

binding: binds
B1: receptor-interacting protein kinase 3 (RIPK3), endogenous in mouse erythrocytes, Q9QZL0 1-486 (protein)
chain: MSSVKLWPTGASAVPLVSREELKKLEFVGKGGFGVVFRAHHRTWNHDVAVKIVNSKKISWEVKAMVNLRNENVLLLLGVTEDLQWDFVSGQALVTRFMENGSLAGLLQPECPRPWPLLCRLLQEVVLGMCYLHSLNPPLLHRDLKPSNILLDPELHAKLADFGLSTFQGGSQSGSGSGSGSRDSGGTLAYLDPELLFDVNLKASKASDVYSFGILVWAVLAGREAELVDKTSLIRETVCDRQSRPPLTELPPGSPETPGLEKLKELMIHCWGSQSENRPSFQDCEPKTNEVYNLVKDKVDAAVSEVKHYLSQHRSSGRNLSAREPSQRGTEMDCPRETMVSKMLDRLHLEEPSGPVPGKCPERQAQDTSVGPATPARTSSDPVAGTPQIPHTLPFRGTTPGPVFTETPGPHPQRNQGDGRHGTPWYPWTPPNPMTGPPALVFNNCSEVQIGNYNSLVAPPRTTASSSAKYDQAQFGRGRGWQPFHK
